From PubChem BioAssay record AID1159506 (NCATS, 2015).

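Genome-wide siRNA knockdown in TC32 Ewing sarcoma cells, comparing luciferase light from an NR0B1-promoter reporter with a CMV-promoter reporter 48 hours after transfection. Each siRNA was applied at 20 nM. A z-score of the log NR0B1-over-CMV signal, less the median of siRNAs with the same seed; more negative means a stronger specific loss of the NR0B1 reporter.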

This is part of the screen; most of the strongest results are not listed here. Sequences are the guide (antisense) strand, without overhang.

| Sequence | gene | seed-corrected z-score |
|---|---|---|
| `UGGAAUGCCUGUUUGGACU` | LOC653303 | 0.02573 |
| `UCAUUACAUAUACCAAUGG` | DEFB130 | 0.2934 |
| `UCCAAUAUCCGGCAGGUGG` | KRT18P55 | -0.04985 |
| `UUCGUUCCGACCAUAGGCU` | APOBEC3F | -0.1271 |
| `UACUCAAAAAGGCCCUCGC` | CRYAA | -1.486 |
| `UAACCAAUGUCGCAUGACU` | PGLYRP4 | 0.7906 |
| `UGGUCCUCCAGAGAUAACC` | PPRC1 | 0.3176 |
| `UAGAUAGCAGAAAACGUGC` | RNF146 | 0.1075 |
| `UCUCCGUAUUCGACUAAGC` | CHL1 | -0.6586 |
| `UUUGCGGAGAAAAUGCGGG` | HSFX2 | 0.3768 |
| `UCACCAGCAUUCUUCAGUG` | TRIM40 | 0.6735 |
| `UUAGGAUCCUUAGCAAGUG` | PPT1 | -0.4134 |
| `AUAGUCACAGUGAACAGUG` | TAF1 | 1.455 |
| `UCACGUACUCUCCUGUUGG` | STRADA | -0.6123 |
| `UGCUCAAUCAGCUUACGCU` | THRA | 0.877 |
| `UGCAGUAUCAGUUCUUUCU` | RUNDC1 | -0.8638 |
| `UUGAUGUACUGGUCGACUG` | PMS1 | 1.104 |
| `UUCGAUCUCCUUGUCCGGC` | RBP5 | 0.1503 |
| `UAUAAACCCAUUUCCAUAC` | PPARA | 0.1749 |
| `UUAGGCAAUGCUUCAAUAG` | EQTN | 0.201 |
| `UUUCACACCAACUAGAAUC` | MRGPRX4 | 1.116 |
| `AUAGUGUUGAUCACUGCCU` | TSPAN33 | 0.3525 |
| `UCUGGUAGAAUAACCCGCC` | NOSTRIN | 0.08066 |
| `ACCAGUUCUAUGAAGUUGC` | LRRC39 | 0.3718 |
| `UAAAUGUCAAAGAGGACUG` | ANXA11 | 0.3333 |
| `AUUAAGAUGAUUAACGAUC` | PCAT18 | 0.9544 |
| `UUUUCGAAGUGAUGAAUGC` | BNC2 | 0.2826 |
| `UGCCGAUCCAUCGAAACAG` | SLC28A1 | 0.5018 |
| `UAUGUGCAUCAGAUCUUGC` | NUAK2 | -0.3924 |
| `AAAGUCAUGAGCAACAGGC` | KCNJ4 | -1.648 |
| `UUAUGAGCAAGAUGGGUAG` | TVP23A | -0.09073 |
| `UUUCAUCACGUAGGUAUCC` | PCDH11X | -0.454 |
| `AAGCGUAAUAGUAAAUUAG` | F2R | 0.14 |
| `UUGCUAUCAAUGUUGCUUC` | PLPPR4 | 1.383 |
| `UCCACUCCCAACCUUCUCC` | REG3A | -0.5883 |
| `UCUUUGAUGAGUGCAAUCG` | SLC44A2 | 0.02078 |
| `UUCAUUCGAACCAUUGAUA` | TMCO1 | 1.413 |
| `UACCGGUUUCAGUUAAGCC` | BZW1 | 0.1232 |
| `ACCAUGGUCAUGGGCAUGC` | ARHGAP27 | 0.289 |
| `AAAAGUCCACCGGUCAUGC` | OVGP1 | -0.7281 |
| `UAUACGUUUUAGGUAUUCG` | NAE1 | -0.2336 |
| `UUGACAACCACGGAGGUGU` | KRT83 | -0.09532 |
| `UCACAAAUCUCUUGUAACC` | HNRNPA1P8 | -1.169 |
| `AAUGGUAUGAUUCUGUAGG` | GAGE1 | 0.5419 |
| `UAAGCUGAAACUCAAAUAU` | PDCD2L | 0.7618 |
| `UUAUUGCUGAAUGAUCUUG` | PIP5KL1 | -0.9455 |
| `UGAAGUUUAAGACAUCCUU` | PSG8 | 0.29 |
| `UCUGUACACGUGCUUCACG` | KCTD2 | 0.3461 |
| `AGUUGUAAUAAUCGUUUCC` | LRRK2 | -0.5319 |
| `UCAGGGUAUAGUCUUCAUG` | CYP8B1 | -1.116 |
| `UAGGUGACGAUGCAAGAGG` | DCLRE1B | -1.226 |
| `UGUAGUACAAGCGGAUGCC` | DBH | -0.1598 |
| `AAACGUGCAACAUUCUUGG` | UBE3D | 0.8679 |
| `UUUCAUACUUGUCUACUCU` | NBPF22P | -1.059 |
| `UUCCUAUCCAUCUCAGCCU` | TJAP1 | 0.8508 |
| `AUGGUGUCCAGAUUUUGCC` | TFAP4 | 1.113 |
| `AAUCUAUCUUCAUUUGACC` | MOV10L1 | -0.6163 |
| `UACAUGUCGACUCAAUAAC` | OR4N4 | -1.041 |
| `UUUGUAGUAAUUCAUCAGC` | GATC | 1.311 |
| `UUUUUCCCUAUGGGUAUCU` | HMGN2P31 | -0.3851 |
| `UGAUGUUGCUGAUUUUCCG` | EPS8L2 | 0.3632 |
| `AAGGUAUUUGCAAUAAGCC` | CMTR2 | 0.79 |
| `UCUGAUACAAAGAGCUUUC` | GRAMD3 | 0.2776 |
| `UGUAAUUCUACUUUCCCGG` | IGF2BP1 | -0.3664 |
| `AAACAUUGCGAAGACAUUG` | MYL9 | 0.2338 |
| `UCGGCUAUUAAGGUCUUCC` | TMED3 | -0.2612 |
| `UCACGUAGGAUAGACAUGC` | NPRL2 | 0.9071 |
| `AUCCGUAUGUCCUCUGUGC` | BSPRY | -0.4335 |
| `UUCUCUCGCAGUUUAGUGG` | CEBPD | 0.5792 |
| `UUAAUGUAGCUGGACAUUG` | LOC145845 | 0.4893 |
| `UGAUUUGAGAGUGGUCUGC` | CCDC60 | 0.6488 |